Source: paper PMC7933254
Results are given in words; binding and its absence hold for the method and conditions named. Binding seen in cells or lysates may run through a third protein. Binding can be weak; no strength is given.

By UniProt entry, the sequences of proteins in these tests, tags left out. Where a name states a change or a piece, a line headed by the entry shows the natural chain unless it says otherwise.
UniProt Q9HBA0: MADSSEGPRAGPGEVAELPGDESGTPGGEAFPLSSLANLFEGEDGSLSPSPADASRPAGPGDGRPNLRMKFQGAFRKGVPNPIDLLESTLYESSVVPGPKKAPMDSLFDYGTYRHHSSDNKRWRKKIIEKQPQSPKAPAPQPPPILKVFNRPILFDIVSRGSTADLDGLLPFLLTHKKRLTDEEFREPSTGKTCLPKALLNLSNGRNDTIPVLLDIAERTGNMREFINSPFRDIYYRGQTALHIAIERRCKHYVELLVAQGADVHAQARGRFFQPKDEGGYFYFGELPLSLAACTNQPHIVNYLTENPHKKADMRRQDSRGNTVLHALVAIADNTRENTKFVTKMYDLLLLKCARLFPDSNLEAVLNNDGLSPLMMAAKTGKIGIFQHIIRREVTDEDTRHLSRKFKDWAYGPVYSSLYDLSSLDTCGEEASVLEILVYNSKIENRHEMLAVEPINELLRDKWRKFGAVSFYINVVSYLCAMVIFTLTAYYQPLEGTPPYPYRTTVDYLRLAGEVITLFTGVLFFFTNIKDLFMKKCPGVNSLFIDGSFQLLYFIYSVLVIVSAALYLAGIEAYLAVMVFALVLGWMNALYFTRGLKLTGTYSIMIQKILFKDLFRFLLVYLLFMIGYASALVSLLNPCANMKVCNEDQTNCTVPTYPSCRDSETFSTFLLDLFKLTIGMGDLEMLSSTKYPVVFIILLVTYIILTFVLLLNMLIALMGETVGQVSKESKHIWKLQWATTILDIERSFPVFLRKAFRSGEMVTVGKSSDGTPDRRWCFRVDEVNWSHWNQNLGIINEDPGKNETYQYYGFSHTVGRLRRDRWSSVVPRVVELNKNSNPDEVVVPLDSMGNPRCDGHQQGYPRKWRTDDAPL

Target: TRPV4-FLAG (wild type), expressed in MN-1 cells (human) (UniProt Q9HBA0)
Assay: co-IP; co-immunoprecipitations shown only in supplementary figures (2b, 2e, 3f, 3g); transfected cells, cell line and antibodies not told in the main text

GFP-tagged neuropathy mutant TRPV4 (from UniProt Q9HBA0)
binding: binds
